Here are results for two molecules from paper PMC1540706.

Results are given in words; binding and its absence hold for the method and conditions named. Binding seen in cells or lysates may run through a third protein. These calls come from enrichment with a bait or labelling near it, and not all partners need be listed.

In this experiment the target is GST-mouse-α-appendage (α-earL695–983) (mouse). Put plainly: affinity purification with mass spectrometry; GST-appendages on beads in rat brain or liver extract (cytosol); LC-MS/MS (Figure S1); only the target purified.

B1: AP180 (brain extract) (protein, UniProt Q05140 1-915)
chain: MSGQTLTDRIAAAQYSVTGSAVARAVCKATTHEVMGPKKKHLDYLIQATNETNVNIPQMADTLFERATNSSWVVVFKALVTTHHLMVHGNERFIQYLASRNTLFNLSNFLDKSGSHGYDMSTFIRRYSRYLNEKAFSYRQMAFDFARVKKGADGVMRTMVPEKLLKSMPILQGQIDALLEFDVHPNELTNGVINAAFMLLFKDLIKLFACYNDGVINLLEKFFEMKKGQCKDALEIYKRFLTRMTRVSEFLKVADEVGIDKGDIPDLTQAPSSLMETLEQHLNTLEGKKPGNNEGSGAPSPLSKSSPATTVTSPNSTPAKTIDTSPPVDIFATASAAAPVSSAKPSSDLLDLQPDFSGARAGAAAPVPPPTGGATAWGDLLGEDSLAALSSVPSEAPISDPFAPEPSPPTTTTEPASASASATTAVTAATTEVDLFGDAFAASPGEAPAASEGATAPATPAPVAAALDACSGNDPFAPSEGSAEAAPELDLFAMKPPETSAPVVTPTASTAPPVPATAPSPAPTAVAATAATTTAAAAATTTATTSAAAATTAAAPPALDIFGDLFDSAPEVAAASKPDVAPSIDLFGTDAFSSPPRGASPVPESSLTADLLSGSGFHCAEDDRHVPLFFTAVDAFAAPSPASTASPAKAESSGVIDLFGDAFGSSASETQPAPQAVSSSSASADLLAGFGGSFMAPSTTPVTPAQNNLLQPNFEAAFGTTPSTSSSSSFDPSGDLLMPTMAPSGQPAPVSMVPPSPAMSASKGLGSDLDSSLASLVGNLGISGTTSKKGDLQWNAGEKKLTGGANWQPKVTPATWSAGVPPQGTVPPTSSVPPGAGAPSVGQPGAGYGMPPAGTGMTMMPQQPVMFAQPMMRPPFGAAAVPGTQLSPSPTPATQSPKKPPAKDPLADLNIKDFL
For B1, the binding result is “binds”.

B2: amphiphysin (brain extract) (protein, UniProt O08838 1-683)
chain: MADIKTGIFAKNVQKRLNRAQEKVLQKLGKADETKDEQFEEYVQNFKRQEAEGTRLQRELRGYLAAIKGMQEASMKLTESLHEVYEPDWYGREDVKMVGEKCDVLWEDFHQKLVDGSLLTLDTYLGQFPDIKNRIAKRSRKLVDYDSARHHLEALQSSKRKDESRISKAEEEFQKAQKVFEEFNVDLQEELPSLWSRRVGFYVNTFKNVSSLEAKFHKEIAVLCHKLYEVMTKLGDQHADKAFSIQGAPSDSGPLRIAKTPSPPEEASPLPSPTASPNHTLAPASPAPVRPRSPSQTRKGPPVPPLPKVTPTKELQQENIINFFEDNFVPEINVTTPSQNEVLEVKKEETLLDLDFDPFKPDVTPAGSAAATHSPMSQTLPWDLWTTSTDLVQPASGGSFNDFTQPQDTSLFTMQTDQNMAETEQALPTEPQAEEPPTTAAAPTAGLDLGLEMEEPKEEAAIPPGTDAGETVGTEGSTGEEAEAEKAALPAGEGESPEGAKIDVESTELASSESPQAAELEAGAPQEKVIPSVVIEPASNHEGEEHQETTTGTETREATEDVAPQGPAGEKQELATEPTPLDSQAATPAPAGAVDASLSAGDAAQELPPGFLYKVETLHDFEAANSDELTLQRGDVVLVVPSDSEADQDAGWLVGVKESDWLQYRDLATYKGLFPENFTRHLE
Regarding B2, the binding result is reported as “binds”.
